Assay [1] addresses Holliday junction recognition protein (HJURP) (human (endogenous in C4-2 and PC3)) (UniProt Q8NCD3). In words: co-IP; endogenous proteins in C4-2 and PC3 lysates, primary antibody 4 h at 4 °C, protein-A/G beads overnight, western blotting. (A western blot detects proteins with antibodies after separation by electrophoresis.)
The target of assay [2] is peroxiredoxin 1 (PRDX1) (human (endogenous in C4-2 and PC3)) (UniProt Q06830). As to the kind of experiment: non-reducing immunoblotting; C4-2 and PC3 cells (HJURP knockout or rescued), free thiols blocked with 20 mM MMTS, lysate in loading buffer without reducing agents, SDS-PAGE; disulfide-linked PRDX1 dimer.
The target of assay [3] is SBP-HJURP (UniProt Q8NCD3). As to the kind of experiment: pull-down; SBP-tagged protein transfected into C4-2 or PC3 cells, H2O2 for 2 min, free thiols blocked with 20 mM MMTS, lysate on SA-Sepharose beads, washes with 1 % Triton X-100 and 1 M urea, elution with biotin, non-reducing immunoblotting (disulfide-linked conjugates).
Assay [4] has as its target SBP-HJURP with mutations in both Cys327 and Cys457 (UniProt Q8NCD3). Described as above.

Sequences of proteins named here, by UniProt entry; tags and fusion partners are left off. A change or cut given only in a name is not applied to a line headed by its entry. A line that says so, or that is headed by a name, gives the form on record, which may keep a tag or linker.
UniProt Q8NCD3: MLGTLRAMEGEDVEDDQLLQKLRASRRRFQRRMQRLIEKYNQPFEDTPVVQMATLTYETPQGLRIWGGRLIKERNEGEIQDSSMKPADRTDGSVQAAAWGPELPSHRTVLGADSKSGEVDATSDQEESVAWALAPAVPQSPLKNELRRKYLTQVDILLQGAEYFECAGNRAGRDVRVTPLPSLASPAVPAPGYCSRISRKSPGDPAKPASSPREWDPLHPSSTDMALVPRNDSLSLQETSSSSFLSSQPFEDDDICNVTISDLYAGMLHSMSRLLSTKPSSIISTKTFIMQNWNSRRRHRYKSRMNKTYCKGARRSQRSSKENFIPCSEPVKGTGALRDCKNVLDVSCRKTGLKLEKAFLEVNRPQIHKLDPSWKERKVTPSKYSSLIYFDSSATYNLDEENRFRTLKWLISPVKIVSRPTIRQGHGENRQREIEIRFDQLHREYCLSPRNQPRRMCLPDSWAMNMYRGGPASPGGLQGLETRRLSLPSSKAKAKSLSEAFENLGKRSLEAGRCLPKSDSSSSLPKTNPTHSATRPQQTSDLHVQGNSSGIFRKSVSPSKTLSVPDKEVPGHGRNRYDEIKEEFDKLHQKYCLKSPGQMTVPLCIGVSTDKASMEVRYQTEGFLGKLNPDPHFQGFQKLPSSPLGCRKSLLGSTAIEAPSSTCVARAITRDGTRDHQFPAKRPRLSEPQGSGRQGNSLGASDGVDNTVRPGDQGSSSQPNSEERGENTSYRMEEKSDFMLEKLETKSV
SBP-HJURP with mutations in both Cys327 and Cys457 (Q8NCD3, form named): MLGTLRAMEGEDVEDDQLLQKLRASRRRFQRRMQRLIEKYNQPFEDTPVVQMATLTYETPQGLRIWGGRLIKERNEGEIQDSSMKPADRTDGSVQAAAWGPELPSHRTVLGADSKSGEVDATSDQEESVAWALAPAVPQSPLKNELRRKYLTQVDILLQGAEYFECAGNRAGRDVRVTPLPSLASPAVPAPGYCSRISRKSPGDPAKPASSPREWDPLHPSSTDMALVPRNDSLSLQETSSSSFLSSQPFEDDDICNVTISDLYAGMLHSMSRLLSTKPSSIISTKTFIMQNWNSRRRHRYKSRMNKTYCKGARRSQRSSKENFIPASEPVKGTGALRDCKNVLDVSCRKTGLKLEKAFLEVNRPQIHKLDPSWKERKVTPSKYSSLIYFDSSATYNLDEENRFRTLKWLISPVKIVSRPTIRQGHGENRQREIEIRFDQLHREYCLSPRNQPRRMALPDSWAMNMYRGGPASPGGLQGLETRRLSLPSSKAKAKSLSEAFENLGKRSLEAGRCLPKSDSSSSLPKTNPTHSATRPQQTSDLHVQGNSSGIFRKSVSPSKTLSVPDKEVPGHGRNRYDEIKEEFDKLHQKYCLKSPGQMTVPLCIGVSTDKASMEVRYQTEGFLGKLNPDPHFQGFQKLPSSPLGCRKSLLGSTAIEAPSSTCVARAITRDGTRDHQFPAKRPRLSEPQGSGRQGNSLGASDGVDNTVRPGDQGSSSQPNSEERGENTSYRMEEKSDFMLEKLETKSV

Results are given in words; binding and its absence hold for the method and conditions named. For some of these results: In cells and extracts the contact can be indirect. Some binding calls cover weakened binding; strength is not graded here.

B1: peroxiredoxin 1 (PRDX1) (enzyme, UniProt Q06830 1-199)
chain: MSSGNAKIGHPAPNFKATAVMPDGQFKDISLSDYKGKYVVFFFYPLDFTFVCPTEIIAFSDRAEEFKKLNCQVIGASVDSHFCHLAWVNTPKKQGGLGPMNIPLVSDPKRTIAQDYGVLKADEGISFRGLFIIDDKGILRQITVNDLPVGRSVDETLRLVQAFQFTDKHGEVCPAGWKPGSDTIKPDVQKSKEYFSKQK
In the case of B1, the binding result is given as “binds” in assay [1], “binds” in assay [2], “binds” in assay [3] and “no binding” in assay [4].
